In US20080039387 (published 2008):

Experiment: general procedure: Fmoc solid-phase peptide synthesis; Fmoc-Rink resin (4-(2',4'-dimethoxyphenyl-Fmoc-aminomethyl)-phenoxypolystyrene resin, Bachem D-2080; 0.47 mmol/g); HOBt; HOAt and DIPEA for Fmoc-Glu(2-phenylisopropyloxy)-OH
Conditions: whole synthesis, hydrochloride

## 2-[2-(hexadecanoylamino)ethoxy]ethoxyacetyl-Gly-Thr-Gln-Arg-Ser-Nle-c[Glu-Asn-D-Phe-Arg-Trp-Lys]-NH2
UV 214 nm, scale of the general procedure theoretically 0.10 mmol
  final HPLC purity: 99%
Scale 0.10 mmol
  isolated mass: 28.1 mg
  isolated yield: 14%
